{"source": "patent US20090291066A1", "about": "“COMPOSITION AND METHOD OF TREATING FACIAL SKIN DEFECT” (priority 2008, published 2009)", "tested_on": "subcutaneous fat", "test": "Subcutaneous injection of collagen filler combined with rosiglitazone, effect on subcutaneous fat", "type": "in vivo", "details": "subcutaneous injection into the backs of rats; biopsies after several weeks; study planned", "note": "At least one structure is not confirmed: it was looked up by name or label, or the drawing left a doubt."}
{"compound": "CN(CCOc1ccc(CC2SC(=O)NC2=O)cc1)c1ccccn1", "note": "(stereo not shown) [Rosiglitazone, rosiglitazone]", "values": [{"measurement": "skin fat parameters / skin defects (expected outcome)", "value": "improvement in skin fat parameters"}]}
